The test system of this assay is BDF1 mice, P388 leukemia ip, median survival T/C. The experiment in a line: NCI In Vivo Anticancer Drug Screen. Data for tumor model P388 Leukemia (intraperitoneal) in B6D2F1 (BDF1) mice. As to conditions: T/C endpoint: median survival time, higher T/C = longer survival. How it is done:
The antitumor activity of compounds was measured in mice bearing transplantable tumors. Survival or tumor size were measured and the results are expressed as the measurement made in the treated group (T) divided by the measurement made in the vehicle treated control group (C). The tumor model used in this assay is P388 Leukemia (intraperitoneal) in B6D2F1 (BDF1) mice

Setting [1] is: dose: 12.5 mg/kg/injection, schedule: Q01DX009 (ip), vehicle: saline with Tween-80.
The mark [2] stands for this setting: dose: 25.0 mg/kg/injection, schedule: Q01DX009 (ip), vehicle: saline with Tween-80.
[3] abbreviates: dose: 100.0 mg/kg/injection, schedule: Q01DX009 (ip), vehicle: saline with Tween-80.
[4] abbreviates: dose: 400.0 mg/kg/injection, schedule: Q01DX009 (ip), vehicle: saline with Tween-80.
Where [5] appears, read: dose: 400.0 mg/kg/injection, schedule: Q04DX003 (ip), vehicle: saline with Tween-80.
The mark [6] stands for this setting: dose: 200.0 mg/kg/injection, schedule: Q01DX009 (ip), vehicle: Klucel (hydroxypropylcellulose) (HPC).
Setting [7] is: dose: 100.0 mg/kg/injection, schedule: Q01DX009 (ip), vehicle: saline.
Where [8] appears, read: dose: 50.0 mg/kg/injection, schedule: Q01DX009 (ip), vehicle: saline.
The mark [9] stands for this setting: dose: 80.0 mg/kg/injection, schedule: Q01DX009 (ip), vehicle: saline with Tween-80.

This note sets out measurements from PubChem BioAssay AID328 (DTP/NCI, 2004).

Each structure is given as a SMILES string. The list is a part of this screen's results and no random one: it gathers tests that were run many times, whatever their T/C, doses with no T/C, and many T/C values between a quarter and a half above the control. Other doses and runs of a compound stand elsewhere. T/C: endpoint of the treated group in % of that of the vehicle group. Some entries give survivors of the animals treated and no T/C: the source files T/C as zero there, which appears to mark a toxic dose or a test without result, not a measured value. Some doses without a T/C left all or most animals alive at the check, yet need not have been tolerated: the source hardly ever lists a survival T/C far under the control, and the zero likely stands for such cases as well. Counts of survivors are from the toxicity check (mostly the fifth day) where no day follows; animals may have died later. Schedules are NCI's codes, taken here to give the interval after Q, in days (D) or hours (H), and the number of doses after X. Some entries hold several experiments; the values are given in rising order. Where survival is the endpoint, the PubChem record calls one and a half times the control and up active, and a quarter to a half above the control has no call in these data; cut-offs in other NCI protocols can differ. Some T/C values are followed by the survivors on the day toxicity was checked, most often the fifth; without a count, all were alive then.

Turning to `Cc1nc2nc(N)nc(N)c2nc1Sc1ccc(Cl)cc1`, the survivor count (dose: 200.0 mg/kg/injection, schedule: Q04DX003 (ip), vehicle: saline with Tween-80) was 6 of 6.
Take `O=C1OCCN1/N=C/C=N/N1CCOC1=O`: the survivor count runs as follows: under setting [1], 5 of 7; under setting [2], 7 of 7; (dose: 50.0 mg/kg/injection, schedule: Q01DX009 (ip), vehicle: saline with Tween-80) 7 of 7.
Turning to `O=[N+]([O-])c1cc[n+]([O-])c(Br)c1`, the survivor count is given as 4 of 6 (dose: 6.25 mg/kg/injection, schedule: Q01DX009 (ip), vehicle: saline with Tween-80); 6 of 6 under setting [1]; 5 of 6 under setting [2]; 6 of 6 under setting [3]; 6 of 6 under setting [4]; 4 of 6 under setting [5].
`O=C1CCC2N1CCC1CCCCN12` (stereo not drawn): the survivor count (dose: 200.0 mg/kg/injection, schedule: Q01DX009 (ip), vehicle: water) was 6 of 6; the survivor count (dose: 300.0 mg/kg/injection, schedule: Q01DX009 (ip), vehicle: water) is reported as 0 of 6; the survivor count (dose: 400.0 mg/kg/injection, schedule: Q04DX003 (ip), vehicle: water) was 4 of 6.
Regarding `CCOc1nn2nnnc2c2ccccc12`, the survivor count is recorded as 7 of 7 (dose: 22.5 mg/kg/injection, schedule: Q01DX009 (ip), vehicle: saline with Tween-80); 7 of 7 (dose: 45.0 mg/kg/injection, schedule: Q01DX009 (ip), vehicle: saline with Tween-80); 7 of 7 (dose: 90.0 mg/kg/injection, schedule: Q01DX009 (ip), vehicle: saline with Tween-80).
For `C[N+](C)(C)c1ccc2ccccc2n1`, the T/C (dose: 12.5 mg/kg/injection, schedule: Q01DX001 (ip), vehicle: saline) is 130 % of control.
For `c1ccc2c(NCCCCCCCCNc3c4ccccc4nc4ccccc34)c3ccccc3nc2c1`, the T/C by setting is: (dose: 5.0 mg/kg/injection, schedule: Q01DX009 (ip), vehicle: Klucel (hydroxypropylcellulose) (HPC)) 129 % of control; (dose: 10.0 mg/kg/injection, schedule: Q01DX009 (ip), vehicle: Klucel (hydroxypropylcellulose) (HPC)) 137 % of control; (dose: 40.0 mg/kg/injection, schedule: Q01DX009 (ip), vehicle: Klucel (hydroxypropylcellulose) (HPC)) 149 % of control.
With `O=C1c2ccccc2C(=O)N1N(c1ccccc1)c1ccccc1`, the survivor count under setting [6] is given as 3 of 6.
With `CCn1c(O)c(C=N)c(=O)n(CC)c1=O`, the survivor count under setting [7] is listed as 5 of 6.
With `c1ccc([P+](C[P+](c2ccccc2)(c2ccccc2)c2ccccc2)(c2ccccc2)c2ccccc2)cc1`, the survivor count (dose: 3.5 mg/kg/injection, schedule: Q01DX009 (ip), vehicle: Klucel (hydroxypropylcellulose) (HPC)) is 4 of 6; the survivor count (dose: 5.2 mg/kg/injection, schedule: Q01DX009 (ip), vehicle: Klucel (hydroxypropylcellulose) (HPC)) is on record as 0 of 6; the survivor count (dose: 9.9 mg/kg/injection, schedule: Q04DX003 (ip), vehicle: Klucel (hydroxypropylcellulose) (HPC)) is reported as 5 of 6; the survivor count (dose: 15.0 mg/kg/injection, schedule: Q04DX003 (ip), vehicle: Klucel (hydroxypropylcellulose) (HPC)) is listed as 4 of 6; the survivor count (dose: 22.0 mg/kg/injection, schedule: Q04DX003 (ip), vehicle: Klucel (hydroxypropylcellulose) (HPC)) is recorded as 1 of 6.
For the compound `ICCCCCCCCCC[n+]1ccc2ccccc2c1`, the T/C was 127 % of control (dose: 6.25 mg/kg/injection, schedule: Q01DX005 (ip), vehicle: saline with Tween-80) and 135 % of control (dose: 50.0 mg/kg/injection, schedule: Q01DX005 (ip), vehicle: saline with Tween-80).
For the compound `Nc1ncnc2c1ncn2C1OC(CO)C(O)C1O` (stereo not drawn), the T/C was 125 % of control (dose: 22.0 mg/kg/injection, schedule: Q01DX009 (ip), vehicle: saline); 131 % of control (dose: 44.0 mg/kg/injection, schedule: Q01DX009 (ip), vehicle: saline with Tween-80); 140 % of control (dose: 67.0 mg/kg/injection, schedule: Q01DX009 (ip), vehicle: saline with Tween-80); 126 and 127 % of control under setting [9]; 141 % of control under setting [3]; 136, 137, 164, 181 % of control (dose: 200.0 mg/kg/injection, schedule: Q01DX009 (ip), vehicle: saline with Tween-80). Moreover, the T/C (dose: 264.0 mg/kg/injection, schedule: Q04DX003 (ip), vehicle: saline) is 136 % of control; the T/C (dose: 400.0 mg/kg/injection, schedule: Q01DX001 (ip), vehicle: saline with Tween-80) is 127 % of control; the T/C under setting [4] is listed as 136, 142, 172, 175, 186, 190 % of control; the T/C (dose: 400.0 mg/kg/injection, schedule: Q04DX003 (ip), vehicle: saline) is 145 % of control; the T/C (dose: 600.0 mg/kg/injection, schedule: Q01DX001 (ip), vehicle: saline with Tween-80) was 125 % of control; the T/C (dose: 600.0 mg/kg/injection, schedule: Q01DX009 (ip), vehicle: saline with Tween-80) is given as 141, 154, 175, 197, 209, 229 % of control. Besides, the T/C (dose: 600.0 mg/kg/injection, schedule: Q04DX003 (ip), vehicle: saline) is 145 % of control. The survivor count (dose: 33.0 mg/kg/injection, schedule: Q01DX009 (ip), vehicle: saline) was 2 of 6; the survivor count (dose: 34.0 mg/kg/injection, schedule: Q01DX009 (ip), vehicle: saline) is reported as 2 of 6; the survivor count under setting [8] is 1 of 6 and 2 of 6; the survivor count (dose: 75.0 mg/kg/injection, schedule: Q01DX009 (ip), vehicle: saline) was 0 of 6 and 1 of 6.
With `CSc1ncc2cnccn12`, the survivor count runs as follows: (dose: 100.0 mg/kg/injection, schedule: Q01DX009 (ip), vehicle: water) 1 of 6; (dose: 200.0 mg/kg/injection, schedule: Q04DX003 (ip), vehicle: water) 0 of 6.
As for `CCOC(=O)C(Cc1ccc(N(CCCl)CCCl)cc1)NC(=O)CNC(C)=O` (stereo not drawn), the survivor count (dose: 75.0 mg/kg/injection, schedule: Q04DX003 (ip), vehicle: saline with Tween-80) is 5 of 6.
Consider `CCCCN(CCCC)CCNc1ccc(Cl)c2oc3cc(C)ccc3c(=O)c12`, for which, under setting [5], the survivor count is reported as 5 of 6.
Turning to `CNC(=N)c1ccc(NC(=N)c2ccc(NC(=N)c3ccc(NC(=N)c4ccc(C(=N)NC)cc4)cc3)cc2)cc1`, the T/C by setting is: (dose: 9.0 mg/kg/injection, schedule: Q01DX009 (ip), vehicle: saline with Tween-80) 129 % of control; (dose: 40.0 mg/kg/injection, schedule: Q04DX003 (ip), vehicle: saline with Tween-80) 137 % of control [5 of 6 alive]. In addition, the survivor count was 0 of 6 (dose: 40.0 mg/kg/injection, schedule: Q01DX009 (ip), vehicle: saline with Tween-80); 1 of 6 (dose: 60.0 mg/kg/injection, schedule: Q04DX003 (ip), vehicle: saline with Tween-80); 0 of 6 under setting [9].
As for `CCCn1cnc2c(=S)nc(N)[nH]c21`, the survivor count (dose: 100.0 mg/kg/injection, schedule: Q01DX009 (ip), vehicle: Klucel (hydroxypropylcellulose) (HPC)) is reported as 6 of 6; the survivor count (dose: 150.0 mg/kg/injection, schedule: Q04DX003 (ip), vehicle: Klucel (hydroxypropylcellulose) (HPC)) is 6 of 6; the survivor count under setting [6] is given as 6 of 6; the survivor count (dose: 400.0 mg/kg/injection, schedule: Q04DX003 (ip), vehicle: Klucel (hydroxypropylcellulose) (HPC)) was 6 of 6. The T/C (dose: 100.0 mg/kg/injection, schedule: Q04DX003 (ip), vehicle: Klucel (hydroxypropylcellulose) (HPC)) is 131 % of control.
Take `CN1C(=O)N(C)C(O)(/C=C/c2c(Cl)cccc2Cl)N(C)C1=O`: the T/C is 148 % of control under setting [8]; 148 % of control under setting [7]; 125 % of control (dose: 200.0 mg/kg/injection, schedule: Q01DX009 (ip), vehicle: saline).
